Measured data: PubChem BioAssay AID504808 (Drosophila RNAi Screening Center, 2011)
The deposit covers about 21,000 reagents; shown is a random part of those with a known target gene and a result. In the full data, 18 (0.084%) were called active. 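Raw counts without plate normalisation, one of two replicates; the ratio scores behind the calls were not deposited.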 Not stated in the record: the amount of reagent, the time to read-out.

Aim: 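Fly genes required to hold E2F transcription in check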 (primary screen)
Cell system: Drosophila S2 cells
Reagent: long dsRNA against Drosophila genes
Measured: 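Firefly luciferase driven by E2F sites, normalised to Renilla luciferase on the same minimal promoter, measured by plate reader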
Direction: E2F firefly: higher = more E2F reporter activity; Renilla normaliser: higher = more normaliser reporter signal
Active means: 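a knock-down counted as active when the firefly/Renilla E2F signal rose above 50%, a threshold chosen arbitrarily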

After knock-down of CG14752 [DRSC06488], the record shows E2F firefly, rep 1 = 1.39e5; Renilla normaliser, rep 1 = 4930; inactive.
For Unc-76 (Uncoordinated 76) [DRSC18193] the deposit lists E2F firefly, rep 1 = 1.28e5; Renilla normaliser, rep 1 = 6544; inactive.
Against Unc-76 (Uncoordinated 76) [DRSC18560], the entry reads E2F firefly, rep 1 = 1.16e5; Renilla normaliser, rep 1 = 6446; inactive.
Against CG32591 [DRSC19063], the values are E2F firefly, rep 1 = 95803; Renilla normaliser, rep 1 = 2935; inactive.
CG15152 [DRSC02453] scored E2F firefly, rep 1 = 1.01e5; Renilla normaliser, rep 1 = 4282; inactive.
Silencing of dgt2 (dim gamma-tubulin 2) [DRSC02548] gave: E2F firefly, rep 1 = 1.02e5; Renilla normaliser, rep 1 = 4175; inactive.
Against CG34299 [DRSC13974], the entry reads E2F firefly, rep 1 = 80807; Renilla normaliser, rep 1 = 2059; inactive.
After knock-down of barc (barricade) [DRSC11792], the record shows E2F firefly, rep 1 = 75066; Renilla normaliser, rep 1 = 3464; inactive.
Toll-7 [DRSC07563] showed E2F firefly, rep 1 = 1.50e5; Renilla normaliser, rep 1 = 4890; inactive.
Knock-down of Jabba [DRSC06521] gave: E2F firefly, rep 1 = 80484; Renilla normaliser, rep 1 = 3790; inactive.
CG9010 [DRSC07320] showed E2F firefly, rep 1 = 80021; Renilla normaliser, rep 1 = 3243; inactive.
Silencing of toc (toucan) [DRSC00169] resulted in: E2F firefly, rep 1 = 1.28e5; Renilla normaliser, rep 1 = 5979; inactive.
toc (toucan) [DRSC00171] showed E2F firefly, rep 1 = 1.33e5; Renilla normaliser, rep 1 = 6569; inactive.
For toc (toucan) [DRSC00842], the entry reads E2F firefly, rep 1 = 82815; Renilla normaliser, rep 1 = 3719; inactive.
After knock-down of alphaSnap (alpha Soluble NSF attachment protein) [DRSC11285], the screen gave E2F firefly, rep 1 = 63666; Renilla normaliser, rep 1 = 3864; inactive.
For CG3604 [DRSC00618], the values are E2F firefly, rep 1 = 1.53e5; Renilla normaliser, rep 1 = 4916; inactive.
Knock-down of Gpdh2 (Glycerol-3-phosphate dehydrogenase 2) [DRSC04346] gave: E2F firefly, rep 1 = 1.06e5; Renilla normaliser, rep 1 = 4692; inactive.
With knock-down of Klp61F (Kinesin-like protein at 61F) [DRSC08671] the results were E2F firefly, rep 1 = 80394; Renilla normaliser, rep 1 = 4162; inactive.
With knock-down of sinah (sina homologue) [DRSC09910] the results were E2F firefly, rep 1 = 1.53e5; Renilla normaliser, rep 1 = 8261; inactive.
Knock-down of Osi12 (Osiris 12) [DRSC12177] gave: E2F firefly, rep 1 = 1.14e5; Renilla normaliser, rep 1 = 5651; inactive.
Knock-down of CG11703 [DRSC14356] resulted in: E2F firefly, rep 1 = 69228; Renilla normaliser, rep 1 = 3516; inactive.
For Tsc1 [DRSC16890] the deposit lists E2F firefly, rep 1 = 62882; Renilla normaliser, rep 1 = 3630; inactive.
Against ZnT77C (Zinc transporter 77C) [DRSC11766], the entry reads E2F firefly, rep 1 = 1.41e5; Renilla normaliser, rep 1 = 6228; inactive.
Against ZnT77C (Zinc transporter 77C) [DRSC11767], the values are E2F firefly, rep 1 = 1.41e5; Renilla normaliser, rep 1 = 6940; inactive.
Depletion of Alg14 (ALG14, UDP-N-acetylglucosaminyltransferase subunit) [DRSC19983] came out at: E2F firefly, rep 1 = 1.50e5; Renilla normaliser, rep 1 = 6220; inactive.
Silencing of CG5860 [DRSC15896] gave: E2F firefly, rep 1 = 1.15e5; Renilla normaliser, rep 1 = 5972; inactive.
CG2528 [DRSC03724] scored E2F firefly, rep 1 = 1.11e5; Renilla normaliser, rep 1 = 4917; inactive.
Lsd-1 (Lipid storage droplet-1) [DRSC14236] gave E2F firefly, rep 1 = 74369; Renilla normaliser, rep 1 = 2980; inactive.
